# Article PMC5633104 (The Journal of Biological Chemistry, 2017)
# The chains behind the UniProt entries cited, without tags or fusion partners. Where a name states a change or a piece, a line headed by the entry shows the natural chain unless it says otherwise.
# UniProt Q16665: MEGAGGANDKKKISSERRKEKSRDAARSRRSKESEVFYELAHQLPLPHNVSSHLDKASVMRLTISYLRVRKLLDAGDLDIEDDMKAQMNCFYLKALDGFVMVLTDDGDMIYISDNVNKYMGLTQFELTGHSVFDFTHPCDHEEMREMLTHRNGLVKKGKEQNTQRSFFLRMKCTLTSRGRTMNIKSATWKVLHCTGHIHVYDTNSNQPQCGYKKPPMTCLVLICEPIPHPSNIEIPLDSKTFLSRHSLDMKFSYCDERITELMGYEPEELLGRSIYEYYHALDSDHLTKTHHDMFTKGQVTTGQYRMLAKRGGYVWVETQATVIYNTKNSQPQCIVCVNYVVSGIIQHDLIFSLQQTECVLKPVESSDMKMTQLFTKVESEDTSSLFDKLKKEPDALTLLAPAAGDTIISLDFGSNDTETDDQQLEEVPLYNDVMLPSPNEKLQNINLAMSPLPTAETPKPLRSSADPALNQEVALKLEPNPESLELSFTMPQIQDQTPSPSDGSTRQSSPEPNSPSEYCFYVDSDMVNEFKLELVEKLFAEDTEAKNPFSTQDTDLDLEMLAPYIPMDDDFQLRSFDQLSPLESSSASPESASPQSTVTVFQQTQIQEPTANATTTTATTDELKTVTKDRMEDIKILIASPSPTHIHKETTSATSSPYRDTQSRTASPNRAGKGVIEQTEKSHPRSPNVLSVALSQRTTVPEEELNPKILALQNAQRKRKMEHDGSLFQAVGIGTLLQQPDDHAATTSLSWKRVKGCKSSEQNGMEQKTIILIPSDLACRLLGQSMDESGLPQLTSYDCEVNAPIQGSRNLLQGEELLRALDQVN
# UniProt P35222: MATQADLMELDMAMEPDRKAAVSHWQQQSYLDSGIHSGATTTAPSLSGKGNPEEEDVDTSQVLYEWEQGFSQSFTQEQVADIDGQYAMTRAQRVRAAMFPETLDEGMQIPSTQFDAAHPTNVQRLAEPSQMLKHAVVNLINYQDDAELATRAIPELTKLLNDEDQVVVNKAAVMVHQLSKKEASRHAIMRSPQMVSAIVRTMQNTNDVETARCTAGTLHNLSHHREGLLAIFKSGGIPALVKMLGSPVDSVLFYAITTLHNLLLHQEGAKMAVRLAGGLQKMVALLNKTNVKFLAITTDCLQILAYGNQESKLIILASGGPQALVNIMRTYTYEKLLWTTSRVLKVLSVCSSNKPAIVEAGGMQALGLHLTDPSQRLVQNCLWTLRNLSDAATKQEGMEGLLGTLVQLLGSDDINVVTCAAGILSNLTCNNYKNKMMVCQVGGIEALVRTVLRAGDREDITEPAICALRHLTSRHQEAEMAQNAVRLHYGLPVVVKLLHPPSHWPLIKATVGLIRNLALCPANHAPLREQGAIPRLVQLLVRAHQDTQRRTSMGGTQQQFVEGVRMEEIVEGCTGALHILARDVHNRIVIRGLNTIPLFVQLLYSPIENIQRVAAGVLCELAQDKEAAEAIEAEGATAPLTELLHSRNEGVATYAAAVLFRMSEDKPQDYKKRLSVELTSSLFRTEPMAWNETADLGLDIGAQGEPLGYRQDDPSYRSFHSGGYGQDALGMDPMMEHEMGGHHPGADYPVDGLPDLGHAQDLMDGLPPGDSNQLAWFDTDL
# These are yes or no findings as the source states them, for the method shown. In cells and extracts the contact can be indirect. Some entries that bind do so weakly or less than the wild type.
# Experiments:
# [1] = target: Hif1α, endogenous in human intestinal epithelial cells (human (endogenous in HT-29 Cl-19a and FHC CRL-1813)) (UniProt Q16665); experiment: condition: only cells co-stimulated with EGF and IL-2; co-IP; as a2, cells stimulated with EGF in the presence of IL-2
# [2] = target: Hif1α, endogenous in human intestinal epithelial cells (human (endogenous in HT-29 Cl-19a and FHC CRL-1813)) (UniProt Q16665); experiment: co-IP; lysates (RIPA buffer) of HT-29 Cl-19a or CRL-1813 (FHC) cells, unstimulated or treated with EGF, IL-2, Src inhibitor J67242 or Jak3 inhibitor CP-690550; IP then IB with the indicated antibodies
binding [1],binding [2],Substance
no binding,binds,HA-tagged β-catenin–WT (from UniProt P35222 1-781)
–,binds,"HA-tagged β-catenin–Y30F,Y64F,Y86F (from UniProt P35222 1-781)"
–,binds,"Tyr654-phosphorylated β-catenin, endogenous in human intestinal epithelial cells (from UniProt P35222 1-781)"
